Data reported in PubChem BioAssay AID504467 (National Center for Advancing Translational Sciences (NCATS), 2011).
The campaign covered roughly 330,000 compounds. About 7,700 (2.3%) were called active. The inconclusive results got no clear call from the source; some entries with a clear call stand among them for comparison. Calls follow the shape of the dose curve; as a rule, active = well fitted inhibition curve with a large enough effect; inconclusive = small, poorly fitted or top-dose-only effect, or effect the other way; inactive = flat fitted curve, though single readings scatter. A potency beside an inconclusive call is a rough fit, not a confirmed value.

Test: qHTS screen for small molecules that inhibit ELG1-dependent DNA repair in human embryonic kidney (HEK293T) cells expressing luciferase-tagged ELG1; also: nearly all actives have a fitted effect of over 55% in size
Settings: HEK293T ELG1-luciferase reporter, luminescence, 16 h, DNA damage induced by 5-fluorouridine; series mostly up to 46.1 µM
In short: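 5-Fluorouridine DNA damage + compound/DMSO, 2,000 cells/well, 16 h, 37 °C/5% CO2. ONE-Glo, 30 min RT, luminescence. Readout = decrease in reporter signal.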
Potency is read from the fitted curve at half-maximal effect.

SMILES	Potency
CCCCn1c(N)c(N(CC(C)C)C(=O)c2ccc(S(=O)(=O)N3CCCCCC3)cc2)c(=O)[nH]c1=O	inconclusive: 25.9 µM [activator, single point]
O=C(Nc1ccccc1)c1cc(Cl)nc2ccccc12	inactive
CCc1ccc(NC(=O)[C@H](C)NC(=O)C2CCN(C(=O)[C@@H](NC(=O)OC(C)(C)C)C(C)C)CC2)cc1	inconclusive: 29.1 µM [activator, single point]
CCOCCn1c(COc2ccc(C)cc2)nc2ccccc21	inconclusive: 14.6 µM [activator, partial curve, poor fit]
CN(/N=C/c1ccc2c(c1)OCO2)c1ccccc1	inconclusive: 16.4 µM [activator, partial curve]
CCC(=O)N1CCc2cc(S(=O)(=O)NCCC(=O)N3CCN(Cc4ccccc4)CC3)ccc21	inconclusive: 29.1 µM [inhibitor, single point]
CCCCN(CC)C(=O)c1cc2cc3ccc(Cl)cc3nc2o1	inconclusive: 10.3 µM [activator, partial curve, poor fit]
CN(CCc1ccccc1)C(=O)c1cccc(NC(=O)Cc2cccc([N+](=O)[O-])c2)c1	active: 23.1 µM
CCOc1ccccc1-c1nc(-c2cc3ccc(C)cc3[nH]c2=O)no1	inconclusive: 20.6 µM [inhibitor, single point]
CN(C)Cc1ccccc1Sc1cccc2ccccc12	inactive
CCOCCCNC(=O)C(NC(=O)c1ccc(NC(C)=O)cc1)c1ccc(Cl)cc1 (centres undefined)	inactive
CC(=O)c1c(C)[nH]c(C(=O)Nc2ccc(Cl)c(S(=O)(=O)N3CCOCC3)c2)c1C	inconclusive: 29.1 µM [inhibitor, single point]
CC(Cl)C(=O)Nc1cc(C(C)(C)C)nn1-c1ccccc1 (centres undefined)	inactive
O=C(N/N=C1\CC2CC=CC12)c1ccc(O)cc1 (centres undefined)	inactive
CC(=NCCc1c(C)[nH]c2ccc(C)cc12)C1=C(O)CC(c2ccccc2)CC1=O (centres undefined)	inconclusive: 9.2 µM [inhibitor, partial curve]
CCN(C(=O)COC(=O)c1ccccc1NCCO)c1cccc2ccccc12	inconclusive: 35.5 µM [inhibitor, single point]
Cc1cc(=S)n(-c2ccccc2)n1C	inconclusive: 6.51 µM [activator, single point]
Cc1ccc(NC(=O)CN(C)C(=O)Nc2ccc(C)cc2)cc1	inconclusive: 16.4 µM [activator, single point]
Nc1nc(-c2ccc(Cl)cc2)nnc1-c1ccc(Br)cc1	inconclusive: 2.31 µM [activator, full curve]

A draw from above in order of SMILES length, smallest number first.
SMILES	Potency
CN(/N=C/c1ccc2c(c1)OCO2)c1ccccc1	inconclusive: 16.4 µM [activator, partial curve]
CC(Cl)C(=O)Nc1cc(C(C)(C)C)nn1-c1ccccc1 (centres undefined)	inactive
CCOc1ccccc1-c1nc(-c2cc3ccc(C)cc3[nH]c2=O)no1	inconclusive: 20.6 µM [inhibitor, single point]
